From patent publication US5534496A, “Methods and compositions to enhance epithelial drug transport” (University of Southern California, priority 1994, dated 1996)
Part of at least one peptide drawing is inferred or uncertain, most often the ends. Where a SMILES comes first, the peptide text is derived from it. [ ]: non-standard residue; d: D form. The star is where a group is joined. X1 = O=C(OCc1ccc(/N=N/c2ccccc2)cc1)*

What was measured:
[1] = Distribution coefficient (DC) in n-octanol/0.05 M phosphate buffer; format: physicochemical; settings: pH=7.4
collagenases = settings: Pz-peptide as a substrate; cited from earlier work
[2] = system: brush border membrane vesicles; experiment: Membrane fluidity by electron spin resonance with 5-DSA and 16-DSA probes; settings: Pz-peptide at 5 mM; 5-DSA or 16-DSA probe; vesicles from upper and lower G.I. segments
[3] = system: human colon carcinoma cell monolayer (Caco2); experiment: Transepithelial electrical resistance (TEER) of Caco2 monolayers
[4] = system: human colon carcinoma cell monolayer (Caco2); experiment: Effect of Pz-peptide on paracellular marker transport in Caco2 monolayer; format: cell-based
Surface tension activity = format: physicochemical; settings: all concentrations tested
intestinal segments = experiment: Effect of Pz-peptide on intestinal penetration of paracellular markers mannitol and atenolol; design: species or system albino rabbit; settings: 3 mM Pz-peptide; lower G.I. segments
collagenase-like enzyme = settings: Pz-peptide as a substrate; cited from earlier work

SMILES	distribution coefficient (DC) [1]	Km (collagenases) [µM]	Vmax (collagenases) [μmol/min/ml/mg. protein]	membrane fluidity (ESR spectra changes) [2]	effect on TEER by apical or basolateral application ([3]; 3 mM)	effect on TEER, correlated with increase in marker penetration ([3]; various concentrations)	concentration dependence of increased transport of paracellular markers [4]	effect on marker transport ([4]; 10-minute exposure, 3 mM Pz-peptide)	enhancement of transport of FITC-dextran 10,000 (FD-10) ([4]; Pz-peptide at 3 mM)	induction of transport of FD-10 ([4]; all concentrations studied)	extent of enhancement of marker transport ([4]; prolonged exposure, 3 mM Pz-peptide)	surface tension activity (Surface tension activity)	Pz-peptide induced change in penetration of paracellular markers mannitol and atenolol (intestinal segments)	Km (collagenase-like enzyme) [µM]	Vmax (collagenase-like enzyme) [μmol/min/mg protein]
CC(C)C[C@H](NC(=O)[C@@H]1CCCN1C(=O)OCc1ccc(/N=N/c2ccccc2)cc1)C(=O)O [Pz-Pro-Leu, Pz-L-Pro-L-Leu]	4.34±0.14	–	–	–	–	–	–	–	–	–	–	–	–	–	–
CC(C)C[C@H](NC(=O)[C@@H]1CCCN1C(=O)OCc1ccc(/N=N/c2ccccc2)cc1)C(=O)NCC(=O)N1CCC[C@H]1C(=O)N[C@H](CCCNC(=N)N)C(=O)O [Pz-peptide, Pz-Pro-Leu-Gly-Pro-D-Arg] (X1-PLGP[dR]-OH)	3.65±0.08	5000	0.3	no effect on membrane fluidity	decrease TEER only by apical application	decrease in transepithelial electrical resistance	concentration-dependent	no effect	no enhancement	unable to induce transport	further increased	no decrease in surface tension activity	increase in the penetration	200	4
